Experimental data taken from PubChem BioAssay AID493014 (National Center for Advancing Translational Sciences (NCATS), 2011).
Screen size: about 340,000 compounds; about 170 (0.05%) were called active. This list was built around the results that the source calls inconclusive (neither active nor inactive); the mix of calls is not that of the screen. Calls come from the whole dose curve; as a rule, active = well fitted inhibition curve with a large enough effect in the signal ratio, with a control signal flat (not every such curve was filed as active); inconclusive = small, poorly fitted or top-dose-only effect, or effect the other way, or a change in a side signal; inactive = flat fitted curve, though single readings scatter; the % refers to the signal ratio. Potencies beside an inconclusive call are fits to weak or partial responses and may not hold up.
Potency is the fitted concentration of half-maximal effect.

Experiment: qHTS Assay to Find Inhibitors of Chronic Active B-Cell Receptor Signaling;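 for activity change, negative = inhibition: plate controls were basal doxycycline-induced cells for no effect and cells given 10 µM MG132 for full effect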
Settings: ABC-DLBCL IkBa-CBG/CBR reporter, luminescence ratio (green luciferase fused to IkBa over red control in TMD8 lymphoma cells), 4 h; activity change, negative = inhibition: at 46.1 µM (top of the series) unless noted
Summary of the method: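 TMD8 ABC-DLBCL cells carrying doxycycline-inducible green luciferase fused to IkappaBalpha plus unfused red luciferase were exposed to compounds (up to 46 uM) for 4 hrs at 37C. Activity came from the overlap-corrected green/red luminescence ratio.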
With O=C(CSc1nnc(-c2ccccn2)o1)Nc1ccc(F)cc1 the Potency was inconclusive: 28.2 µM [falling, partial curve].
For O=C(C1CCCO1)N1CCN(S(=O)(=O)c2ccc(F)cc2)CC1 (stereo unspecified), the activity change, negative = inhibition was inconclusive: -0.452%.
In the case of Cc1ccc(CNC(=O)C2CCN(S(=O)(=O)N3CCC4(CC3)OCCO4)CC2)cc1, the activity change, negative = inhibition is reported as inconclusive: -1.2%.
With COc1cccc(/C=C2\SC(=S)N(CCC(=O)NC3C=CS(=O)(=O)C3)C2=O)c1 (stereo unspecified) the Potency was inconclusive: 20 µM [falling, partial curve].
With COc1ccc(NC(=O)CC2SC(=O)NC2=O)cc1 (stereo unspecified) the activity change, negative = inhibition was inconclusive: 2.45%.
In the case of CCN(CC)CCCN(Cc1cc2cc3c(cc2[nH]c1=O)OCO3)C(=O)Nc1ccccc1OC, the Potency is reported as inconclusive: 8.2 µM [falling, partial curve, poor fit].
In the case of CC(C)COC(=O)n1c(SCC(N)=O)nc2ccccc21, the activity change, negative = inhibition is reported as inconclusive: 5.19%.
With COc1ccc(CNc2oc(C)nc2C#N)cc1 the Potency was inconclusive: 1.16 µM [falling, full curve, poor fit].
In the case of O=C(COC(=O)c1cc([N+](=O)[O-])ccc1NCc1ccccc1)NC1CCCc2ccccc21 (stereo unspecified), the activity change, negative = inhibition is reported as inconclusive: -2.58%.
With CCN(CC(=O)NCc1cccs1)S(=O)(=O)c1ccccc1Cl the Potency was inconclusive: 20.6 µM [falling, partial curve, poor fit].
With COC(=O)C(=C/C(C)=C/c1cccs1)C(=O)OC the activity change, negative = inhibition was inconclusive: -4.12%.
For CC(=O)N(CCc1ccccc1)Cc1cc2cc(C)ccc2[nH]c1=O, the activity change, negative = inhibition was inconclusive: 6.59%.
For COC(=O)c1c(NC(=O)c2ccco2)sc(C(=O)N(C)C)c1C, the Potency was inconclusive: 23.1 µM [falling, partial curve].
With Cc1ccc(-c2[nH]c3cc(C(=O)NCCCn4ccnc4)ccc3c(=O)c2O)cc1 the Potency was inconclusive: 2.82 µM [falling, full curve, poor fit].
With CN1C(=O)c2ccc(C(=O)Nc3ccccc3O)cc2C1=O the Potency was inconclusive: 11.2 µM [falling, partial curve, poor fit].
With Cc1cc(-c2nc3ncccc3o2)ccc1NC(=O)CC(C)C the activity change, negative = inhibition was inconclusive: 9.22%.
In the case of Cc1nc(NC(=O)CSc2nc3cccnc3n2Cc2ccccc2)sc1C, the “activity change, negative = inhibition” value is reported as inactive: -1.4%.
In the case of CCCCCCCNC(=O)COc1ccc2c(c1)C(=O)CC(C)(C)O2, the Potency is reported as inconclusive: 32.6 µM [rising, partial curve, poor fit].
For COc1ccc(S(=O)(=O)Nc2ccc(NC(C)=O)cc2)cc1, the Potency was inconclusive: 20.6 µM [falling, single point].
In the case of CN(C(=O)CSc1nc2scc(-c3ccccc3)c2c(=O)[nH]1)c1ccccc1, the activity change, negative = inhibition is reported as inconclusive: 5.21%.
With N#CCC(=O)Nc1ccc(C(=O)OCC(=O)Nc2ccccc2-c2ccccc2)cc1 the activity change, negative = inhibition was inconclusive: -28.9%.
In the case of O=C(Cn1cnc2sc(-c3ccccc3)cc2c1=O)N1CCOCC1, the activity change, negative = inhibition is reported as inconclusive: -4.08%.
In the case of O=C(NCCc1ccccc1)c1cc([N+](=O)[O-])ccc1N1CCOCC1, the “activity change, negative = inhibition” value is reported as inactive: 3.51%.
With O=C1C(c2ccccc2)C(c2ccccc2)NC(c2ccccc2)C1c1ccccc1 (stereo unspecified) the “activity change, negative = inhibition” value was inactive: 2.97%.
For O=C(Cc1cccc2ccccc12)N/N=C/c1ccc(O)c([N+](=O)[O-])c1, the activity change, negative = inhibition was inconclusive: 0.108%.
With O=C(Nc1ccccc1C(=O)O)c1cccc(NC(=O)c2ccc(Br)o2)c1 the Potency was inconclusive: 23.1 µM [falling, single point].
With COc1ccc(C(=O)N2CCCC(O)C2)cc1OC1CCN(C(C)C)CC1 (stereo unspecified) the activity change, negative = inhibition was inconclusive: 4.4%.
In the case of Cc1noc(NS(=O)(=O)c2ccc(N3C(=O)c4ccccc4C3=O)cc2)c1C, the “activity change, negative = inhibition” value is reported as inactive: 9.8%.
For COc1ccccc1N1CCN(CC(=O)Nc2nccs2)CC1, the “activity change, negative = inhibition” value was inactive: 1.29%.
With Cc1cc(N/N=C/c2ccccc2)nc(NCc2ccccc2)n1 the activity change, negative = inhibition was inconclusive: -2.45%.
For CCOc1ccc(Cl)cc1C1=CC(=O)C[C@H](c2ccc(OC)cc2)C1, the activity change, negative = inhibition was inconclusive: -0.572% [cytotoxic].
With CCCc1nc2c(nnn2Cc2ccccc2F)c(=O)[nH]1 the activity change, negative = inhibition was inconclusive: 19.1%.
With CS/C(=N\S(=O)(=O)c1cccs1)Nc1ccc(Br)cc1F the “activity change, negative = inhibition” value was inactive: -0.844%.
For N#Cc1c(N)c(C#N)c(-c2ccc3c(c2)OCO3)c2c1CCCC2, the “activity change, negative = inhibition” value was inactive: 4.72%.
With CCOc1cc(Br)c(CC(=O)O)cc1OCC the activity change, negative = inhibition was inconclusive: -103%.
In the case of COc1cc(/C=N/NC(=O)c2cc(C34CC5CC(CC(C5)C3)C4)[nH]n2)ccc1O, the “activity change, negative = inhibition” value is reported as inactive: 1.77%.
With Cc1cccc(NC(=O)c2oc(=O)c3ccccc3c2-c2ccccc2)c1C the activity change, negative = inhibition was inconclusive: 2.47%.
With CCOc1ccccc1CN1CCN(Cc2cccc3c2OCO3)CC1CCO (stereo unspecified) the Potency was inconclusive: 3.16 µM [falling, partial curve, poor fit].
In the case of O=[N+]([O-])c1cc(CN2CCCC2)c2cccnc2c1O, the “activity change, negative = inhibition” value is reported as inactive: 2.25%.
For COc1ccccc1NC(=S)NC1CCCCCC1, the activity change, negative = inhibition was inconclusive: -10.6%.
In the case of Cc1ccc(-c2nc3ccccc3c(=O)o2)cc1, the Potency is reported as inconclusive: 11.2 µM [falling, partial curve].
